Reference: publication doi:10.1101/2023.03.17.532973 (bioRxiv, 2023)
These are yes or no findings as the source states them, for the method shown. Some binding calls cover weakened binding; strength is not graded here.

Target: human cytosolic serine hydroxymethyltransferase (SHMT1), wild type (human) (UniProt P34896)
Test: cryo-EM structure

B1: human cytosolic serine hydroxymethyltransferase (SHMT1), wild type (enzyme)
chain: DADLWSSHDKMLAQPLKDSDVEVYNIIKKESNRQRVGLELIASENFASRAVLEALGSCLNNKYSEGYPGQRYYGGTEFIDELETLCQKRALQAYKLDPQCWGVNVQPYSGSPANFAVYTALVEPHGRIMGLDLPDGGHLTHGFMTDKKKISATSIFFESMPYKVNPDTGYINYDQLEENARLFHPKLIIAGTSCYSRNLEYARLRKIADENGAYLMADMAHISGLVAAGVVPSPFEHCHVVTTTTHKTLRGCRAGMIFYRKGVKSVDPKTGKEILYNLESLINSAVFPGLQGGPHNHAIAGVAVALKQAMTLEFKVYQHQVVANCRALSEALTELGYKIVTGGSDNHLILVDLRSKGTDGGRAEKVLEACSIACNKNTCPGDRSALRPSGLRLGTPALTSRGLLEKDFQKVAHFIHRGIELTLQIQSDTGVRATLKEFKERLAGDKYQAAVQALREEVESFASLFPLPGL
B1 was tested, and the binding was “binds”.
